The structures appear in SMILES notation. Where “and” joins values, the source holds several entries; their conditions need not be identical. Equal entries are not always repeated. The list shows a part of the results. Shown are side measurements of this screen, not its main read-out; they come without a call. Compounds called inactive in the main read-out are mostly missing here. The note in brackets gives the kind of curve behind each potency; many fits are weak.

This assay is described as follows: qHTS Assay for Modulators of Lamin A Splicing. As to conditions: HeLa LMNA splicing GFP/RFP minigene ratio, 48 h. The method, boiled down:
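Read-out is the ratio of GFP to DsRed2 object intensity, acquired by 488 nm laser-scanning cytometry on HeLa lamin A-EGFP minigene reporter cells. Compound incubation 48 hrs at 37 °C in Opti-MEM with 2% FBS; DMSO 0.5% final.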

Where [1] appears, read: measured here: GFP splicing reporter channel.
The mark [2] stands for this setting: measured here: RFP viability control channel.

By AC50 is commonly meant the concentration at which the activity in the assay is half-maximal. Take `O=C(CCC1N=C2c3ccccc3N=C(SCC(=O)NCCc3ccccc3)N2C1=O)NCc1ccc(F)cc1` (stereo unspecified): the AC50 under setting [1] is 0.708 µM [falling, single point].

With `COC(=O)[C@@H]1[C@@H](C#N)C2(c3ccccc3-c3ccccc32)N(c2ccc(Cl)cc2)N1C#N`, the AC50 under setting [1] is 22.4 µM [falling, single point] and the AC50 under setting [2] was 25.1 µM [falling, single point]. On to `CCC(C)c1ccc(C2C3=C(Nc4nc(N)[nH]c(=O)c42)c2ccccc2C3=O)cc1` (stereo unspecified), for which the AC50 under setting [2] is 35.5 µM [falling, single point].

With `CCCCCN(C(=O)NC(=O)Nc1ccc(C)cc1C)S(C)(=O)=O`, the AC50 reads like this: under setting [1], 6.31 µM [falling, partial curve]; under setting [2], 3.16 µM [falling, partial curve, poor fit]. On to `CC/C(=C\C(=O)c1ccncc1)Nc1ccc(O)cc1`, for which the AC50 runs as follows: under setting [1], 17.8 µM [rising, partial curve]; under setting [2], 25.1 µM [rising, single point]. On to `CCCN(CCC)C(=O)Cn1c(=O)n(-c2ccc(Cl)c(Cl)c2)c(=O)c2c(C)c(C(=O)N(C)C)sc21`, for which the AC50 under setting [1] was 0.0178 µM [rising, full curve, poor fit] and the AC50 under setting [2] was 0.0112 µM [rising, full curve, poor fit].

In the case of `CNc1sc(C(=O)c2cccs2)c(N)c1-c1nc2ccccc2s1`, the AC50 is, setting by setting: under setting [1], 12.6 µM [rising, partial curve]; under setting [2], 15.8 µM [rising, single point]. As for `O=C(O)CCC(=O)c1ccc(-c2ccccc2)cc1`, the AC50 is 1.12 µM [falling, partial curve, poor fit] under setting [1]; 282 nM [falling, single point] and 891 nM [falling, full curve, poor fit] under setting [2].

`COC(=O)C1=C(C(=O)OC)[C@@H]2Nc3ccccc3[C@@]23C[C@@H](C(=O)OC)N(C(C)=O)C3=N1`: the AC50 under setting [2] is 0.355 µM [falling, single point]. Take `Cc1noc(NS(=O)(=O)c2ccc(NC(=O)C34CC5CC(C3)CC(n3cnc(Cl)n3)(C5)C4)cc2)c1C`: the AC50 under setting [1] was 0.398 µM [falling, full curve, poor fit]. As to `O=C(CCc1nc(-c2cccs2)no1)Nc1ccc([N+](=O)[O-])cc1`, the AC50 is, setting by setting: under setting [1], 10 µM [rising, partial curve]; under setting [2], 12.6 µM [rising, single point].

Regarding `CC(C)c1ccc(/C=C/C(=O)Nc2nncs2)cc1`, the AC50 was 15.8 µM [rising, partial curve, poor fit] under setting [1] and 17.8 µM [rising, single point] under setting [2]. Turning to `O=C(N/N=C/c1ccc([N+](=O)[O-])s1)c1ccncc1`, under setting [2], the AC50 was 20 µM [falling, single point]. Consider `COc1ccc(CNC(=O)C(=O)NCC(c2cccs2)S(=O)(=O)c2cccs2)cc1` (stereo unspecified), for which the AC50 under setting [1] is 0.00447 µM [falling, full curve, poor fit].

As to `COc1ccccc1N1CCN(C(=O)Cn2nc3n(C)c4ccccc4n3c(=O)c2=O)CC1`, the AC50 under setting [1] is 0.0141 µM [falling, full curve, poor fit].

As to `COc1ccc(-n2nnnc2-c2nc3ccccc3s2)cc1`, the AC50 under setting [2] is 22.4 µM [rising, partial curve, poor fit]. Consider `CC1CCN(C(=S)NC(=O)c2cccs2)CC1`, for which the AC50 reads like this: under setting [1], 7.94 µM [rising, partial curve]; under setting [2], 3.55 µM [rising, single point]. For `COc1ccc(/C=C/C(=O)O)cc1`, the AC50 under setting [1] is 0.794 µM [falling, full curve, poor fit].

Consider `O=C(Cc1ccc(Cl)cc1)Nc1ccc(-c2cc3ccccc3oc2=O)c(Cl)c1`, for which the AC50 under setting [1] was 35.5 µM [falling, single point]. Regarding `Cc1nc2ccc(NC(=S)NC3CCCCC3)cc2nc1C`, the AC50 under setting [1] was 6.31 µM [falling, partial curve]. Consider `COC(=O)c1cc(NC(=O)C2CC(=O)NC(=NCc3ccc(OC)cc3)S2)cc(C(=O)OC)c1` (stereo unspecified), for which the AC50 under setting [1] is 2 µM [rising, partial curve]. Regarding `Cc1ccc(C(=O)N/C(=C\c2ccc(-c3ccc(Cl)cc3)o2)C(=O)NCCCN(C)C)cc1`, the AC50 under setting [2] is 35.5 µM [falling, single point]. As for `Cc1ccc(NC(=S)NCc2cccn2C)cc1`, the AC50 under setting [1] was 25.1 µM [rising, single point] and the AC50 under setting [2] was 35.5 µM [rising, single point]. On to `S=C(NCc1ccc(Cl)cc1Cl)Nc1ccccc1`, for which the half-maximal activity concentration (AC50) under setting [1] is 20 µM [rising, single point]. Regarding `Cc1cc(C(=O)NCc2ccccc2)c2c(C)nn(-c3cccc(Cl)c3C)c2n1`, the AC50 reads like this: under setting [1], 11.2 µM [rising, partial curve]; under setting [2], 7.94 µM [rising, partial curve, poor fit]. Take `CCOC(=O)N1CCN(C(=O)CSCC(=O)Nc2nc(-c3ccc(Cl)s3)cs2)CC1`: the AC50 under setting [1] was 11.2 µM [rising, partial curve] and the AC50 under setting [2] was 12.6 µM [rising, partial curve]. As to `COc1ccc(-n2nnnc2SCC(=O)NCCc2ccc(OC)c(OC)c2)cc1`, the AC50 was 35.5 µM [rising, single point] under setting [1] and 35.5 µM [rising, single point] under setting [2]. Regarding `Cc1ccc(NC(=O)CN(c2ccc(C)cc2)S(=O)(=O)c2cccc3nonc23)cc1`, the AC50 was 15.8 µM [rising, single point] under setting [1] and 20 µM [rising, single point] under setting [2].

On to `CCOC(=O)c1c(C)[nH]c(C(=O)Nc2ccc(C)c(Cl)c2)c1C`, for which the AC50 was 35.5 µM [rising, single point] under setting [1] and 35.5 µM [rising, single point] under setting [2]. For the compound `CN(C)C(=O)/C(=C\c1cccc(Oc2ccccc2)c1)NC(=O)c1ccccc1`, the AC50 under setting [2] was 31.6 µM [rising, single point]. `CCC(C)C(=O)Nc1nc(C)c(-c2csc(Nc3cc(Cl)ccc3OC)n2)s1` (stereo unspecified): the concentration at half-maximal activity (AC50) by setting is: under setting [1], 2.51 µM [rising, full curve, poor fit]; under setting [2], 15.8 µM [rising, partial curve]. Take `Cc1c(C(=O)N2CCOCC2)oc2ccc(S(=O)(=O)N3CCCCCC3)cc12`: the AC50 is 12.6 µM [rising, partial curve, poor fit] under setting [1] and 20 µM [rising, single point] under setting [2]. With `O=S(=O)(c1ccc(F)cc1)c1snnc1-c1ccccc1`, the AC50 runs as follows: under setting [1], 5.62 µM [falling, full curve, poor fit]; under setting [2], 12.6 µM [falling, partial curve]. On to `Cc1nc(-c2ccc(C)c(S(=O)(=O)N3CCC(C(=O)NCc4ccc(F)cc4)CC3)c2)no1`, for which the AC50 under setting [2] was 4.47 µM [rising, single point]. Take `COc1ccc(OC)c(NC(=O)CC2SC(=Nc3ccccc3)N(CCc3ccccn3)C2=O)c1` (stereo unspecified): the AC50 under setting [2] is 3.98 µM [rising, full curve]. Same read-out and setting: in the case of `COc1ccc(C)cc1NC(=O)c1nnn(CCc2ccccc2)c1N` it was 0.141 µM [rising, full curve, poor fit]. Consider `CCCCc1ncc(/C=C(\Cc2cccs2)C(=O)O)n1Cc1ccc(C(=O)O)cc1`, for which the AC50 under setting [1] is 0.501 µM [falling, single point]. As to `NC(=O)/C=C\c1cn(-c2ccccc2)nc1-c1ccc2c(c1)OCCO2`, the AC50 reads like this: under setting [1], 1.12 µM [rising, partial curve]; under setting [2], 22.4 µM [rising, partial curve, poor fit]. As for `O=C(Nc1ccc2oc(-c3cccnc3)nc2c1)c1cc2ccccc2o1`, the AC50 under setting [1] is 0.178 µM [rising, full curve, poor fit].

Take `N#Cc1cc(C(=O)c2cc(Cl)ccc2O)cn(-c2ccccc2)c1=O`: under setting [2], the AC50 is 10 µM [rising, partial curve].

Turning to `Cc1cc(SCC(=O)Nc2ncc(Cl)cc2Cl)nc2ccccc12`, the AC50 under setting [2] is 22.4 µM [rising, partial curve]. As for `Cc1cc(C(=O)CCl)c(C)n1CCc1ccccc1`, the AC50 under setting [1] was 5.62 µM [rising, single point]. As for `CC(=O)c1cccc(N2C(=O)CN(S(C)(=O)=O)CC2(C)C(=O)NC2CCCC2)c1` (stereo unspecified), the AC50 under setting [1] is 39.8 µM [rising, partial curve, poor fit].

With `Cc1ccc(C)c2[nH]c(=O)c(CN(CCN3CCCC3)C(=O)Nc3cccc(Cl)c3)cc12`, the AC50 under setting [2] was 14.1 µM [rising, single point]. The same measure, in the same setting: in the case of `CCCCCCC(=O)N(O)C1CC(=O)N(c2ccc(C)cc2)C1=O` (stereo unspecified) it was 14.1 µM [rising, single point]. As to `CCCCCCc1cc2cc(S(=O)(=O)c3ccc(F)cc3)c(=O)oc2cc1O`, the AC50 under setting [2] was 12.6 µM [rising, partial curve].

In the case of `CCN(CC)Cc1c[nH]c2c(C(=O)OC)cccc12`, the half-maximal activity concentration (AC50) is 0.0891 µM [falling, full curve, poor fit] under setting [1] and 0.158 µM [falling, full curve, poor fit] under setting [2].

Turning to `Cc1cc2ncn(CC(O)COC3CCCCC3)c2cc1C` (stereo unspecified), the AC50 under setting [2] was 12.6 µM [rising, single point].

With `COc1ccc(-c2nnn(CC(=O)N(CC(=O)NCCC(C)C)c3ccccc3)n2)cc1OC`, under setting [1], the AC50 is 22.4 µM [rising, single point]. On to `Cc1ccc2c(c1)c(C)c(C)n2CC(O)Cn1nnc2ccccc21` (stereo unspecified), for which the AC50 is 22.4 µM [rising, single point] under setting [1] and 35.5 µM [rising, single point] under setting [2]. Consider `COc1cc(NC(=O)c2cc(Cl)nnc2Cl)cc(OC)c1OC`, for which the AC50 under setting [2] was 15.8 µM [rising, single point]. As to `OCCN1CCN(CCC=C2c3ccccc3Sc3ccc(Cl)cc32)CC1`, the AC50 reads like this: under setting [1], 1.26 µM [falling, full curve]; under setting [2], 1.12 µM [falling, full curve]. With `CCOC(=O)c1[nH]c(C)c(CCC(=O)Nc2cc(Cl)c(OC)cc2OC)c1C`, the AC50 is, setting by setting: under setting [1], 0.501 µM [rising, full curve]; under setting [2], 1.26 µM [rising, full curve].

These data come from PubChem BioAssay AID1487 (National Center for Advancing Translational Sciences (NCATS), 2009).
